From PubChem BioAssay AID1347076 (National Center for Advancing Translational Sciences (NCATS), 2019)
Hit rate of the full screen: of about 400,000 compounds, about 13,000 (3.2%) were called active. The shares of active, inactive and inconclusive entries below differ from those in the screen. Calls follow the shape of the dose curve; as a rule, active = well fitted cell-killing curve with a large enough effect; inconclusive = small, poorly fitted or top-dose-only effect, or effect the other way; inactive = flat fitted curve, though single readings scatter. Potencies of inconclusive entries are doubtful fits and often do not repeat.

Experiment: qHTS assay for MDR1-selective chemotherapeutics: Primary screen using the drug-selected MDR subline cells KB-V1; also: nearly all actives have a fitted effect of over 60% in size
Settings: KB-V1 MDR cells viability, CellTiter-Glo, 72 h; activity change, negative = cytotoxicity: at 46.1 µM (top of the series)
How it was run: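 Drug-selected KB-V1 cells, grown in DMEM lacking phenol red with 10% FBS, receive compound titrations; after three days at 37 degrees C, surviving cell ATP is quantified by CellTiter-Glo luminescence and responses normalized and curve-fitted.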
% is scaled to controls: 0 for no effect and ±100 for the full control effect; potency is read from the fitted curve at half-maximal effect.

Row | Compound | Potency | activity change, negative = cytotoxicity
1 | O=C(CCC1CCCCC1)NCCN1C2=NC[C@H](Cc3ccc(O)cc3)N2C[C@H]1Cc1ccc(O)cc1 | inconclusive: 16.4 µM [rising, single point] | –
2 | CC1(C)Cc2cccc(OCC(=O)Nc3ccccc3C(F)(F)F)c2O1 | – | inactive: -24.8%
3 | O=C(c1cc2nc(-c3ccc(F)cc3)cc(C(F)(F)F)n2n1)N1CCCCC1c1cccnc1 (stereo not given) | inconclusive: 0.461 µM [cytotoxic, full curve] | –
4 | Cc1ccc(C(O)(COC(=O)C(C)C)COC(=O)C(C)C)c(O)c1 | inconclusive: 23.1 µM [cytotoxic, single point] | –
5 | CN1C(=O)c2ccccc2Sc2ccc(NC(=O)c3ccc(C#N)cc3)cc21 | inconclusive: 23.1 µM [cytotoxic, partial curve, poor fit] | –
6 | CN(C)c1ccc(-c2csc(C(C)(O)c3cccc(F)c3)n2)cc1 (stereo not given) | inconclusive: 16.4 µM [cytotoxic, single point] | –
7 | CCn1cc([N+](=O)[O-])c(C(=O)N2N=C(c3ccc(O)c(OC)c3)CC2c2ccccc2O)n1 (stereo not given) | inconclusive: 23.1 µM [cytotoxic, partial curve] | –
8 | Cc1ccc(S(=O)(=O)C2(C(=O)N3CCN(C4CCCCC4)CC3)CC2)cc1 | active: 16.4 µM | –
9 | CCOC(=O)C1=C(CC)Nc2ccccc2N=C1NC(=O)c1oc2ccccc2c1C | inconclusive: 11.6 µM [cytotoxic, partial curve] | –
10 | CCCN(CC(=O)Nc1ccccc1C)C(=O)c1ccc(OCc2c(C)noc2C)cc1 | inconclusive: 11.6 µM [cytotoxic, partial curve] | –
11 | CCn1c(C)cc(/C=C2\NC(=O)N(CC(=O)Nc3cccc(C)c3)C2=O)c1C | – | inactive: 24%
12 | CCN1CCCC1CNC(=O)Cn1cnc2sc(C)c(S(=O)(=O)N3CCC(C)CC3)c2c1=O (stereo not given) | inconclusive: 29.1 µM [rising, single point] | –
13 | O=C(COC(=O)c1c2c(nc3ccccc13)CCCC2)c1ccc(Br)s1 | inconclusive: 16.4 µM [cytotoxic, single point] | –
14 | CCc1ccc(NC(=O)C(C)OC(=O)Cn2[nH]c(=O)c3ccccc3c2=O)cc1 (stereo not given) | – | inactive: 25.3%
15 | CC(C)(C)OC(=O)C[C@@H]1C/C=C\C[C@H](CC(=O)N(CCO)Cc2ccccc2)C(=O)NC[C@H](c2ccccc2)OC1=O | – | inactive: 2.54%
16 | CCCC12CN3CC(CCC)(CN(C1)C3c1ccco1)C2=O (stereo not given) | inconclusive: 29.1 µM [cytotoxic, single point] | –
17 | Nc1c(-c2cccc(Cl)c2)cnn1-c1cccc(C(F)(F)F)c1 | active: 20.6 µM | –
18 | C=CCn1c(-c2ccccc2)c[nH]c1=S | inconclusive: 29.1 µM [cytotoxic, single point] | –
19 | COc1ccc(OC)c(NC(=O)N2CCC(CN3CCCCC3)CC2)c1 | – | inactive: -8.39%
20 | CCOc1cc2[nH]c(=O)n(CCCC(=O)N3CCN(c4cccc(Cl)c4)CC3)c(=O)c2cc1OCC | inconclusive: 29.1 µM [cytotoxic, single point] | –
21 | CCC(C)Sc1cc(C(F)(F)F)c(C(=O)Nc2ccc(Cl)cc2)cn1 (stereo not given) | – | inconclusive: -30.8% [cytotoxic]
22 | Cc1nc(SCc2ccc(Cl)cc2)c(C#N)c(C)c1Cl | inconclusive: 18.4 µM [cytotoxic, single point] | –
23 | COc1ccc2nc3cc(Cl)ccc3c(C#N)c2c1 | – | inactive: 11.3%

Row | Compound | Potency | activity change, negative = cytotoxicity
24 | CC(C)(C)NC(=O)C(c1ccco1)N(C(=O)c1ccc(CN2CCOCC2)o1)c1ccccc1 (stereo not given) | inconclusive: 18.4 µM [cytotoxic, single point] | –
25 | O=C(Oc1ccc(-c2cnc3ccccc3n2)cc1)c1ccco1 | inconclusive: 18.4 µM [cytotoxic, single point] | –
26 | O=[N+]([O-])c1ccc(-c2nc(Cl)c3c(n2)CCCC3)o1 | inconclusive: 29.1 µM [cytotoxic, partial curve, poor fit] | –
27 | CCOC(=O)c1cnc2ccc(OCC)cc2c1Nc1cc(Cl)c(OC)cc1OC | – | inactive: 0.164%
28 | Clc1ccc2[nH]cc(-c3nnnn3-c3ccccc3)c2c1 | active: 16.4 µM | –
29 | CC(C)CC(=O)NC(=S)Nc1ccccc1N1CCCC1 | – | inactive: -22.3%
30 | COc1ccc2nc3n(c(=O)c2c1)-c1ncccc1C(=O)NC3Cc1ccccc1 (stereo not given) | – | inactive: -1.7%
31 | CCN(CC)C(=O)/C(=C\c1cccc([N+](=O)[O-])c1)NC(=O)c1ccco1 | active: 13 µM | –
32 | N#Cc1ccc(-c2cccnc2)nc1SCC(=O)c1ccccc1 | – | inactive: -5.56%
33 | CC(C)CNC(=O)C(=O)NCC1OCCCN1S(=O)(=O)c1ccc2c(c1)OCCO2 (stereo not given) | – | inactive: -20.7%
34 | COC(=O)c1ccc(Cn2c(SCC(=O)N(C)c3ccccc3)nc3ccccc32)cc1 | – | inactive: 4.47%
35 | CCCCOc1ccc(C(=O)NCC(=O)N2CCN(Cc3ccc4c(c3)OCO4)CC2)cc1 | inconclusive: 8.2 µM [cytotoxic, partial curve, poor fit] | –
36 | Cn1nc(C(C)(C)C)c([N+](=O)[O-])c1C(=O)Nc1ccc(Br)cc1 | inconclusive: 29.1 µM [cytotoxic, single point] | –
37 | CCOC(=O)c1c(NC(=O)c2c(-c3ccccc3)noc2C)sc(C)c1-c1ccccc1 | active: 6.51 µM | –
38 | CCN(CC)C1CC(=O)N(c2cccc(Cl)c2)C1=O (stereo not given) | inconclusive: 29.1 µM [rising, single point] | –
39 | Cc1cccc(C)c1NC(=O)c1ccc(-c2ccc(Cl)cc2Cl)o1 | inconclusive: 18.4 µM [cytotoxic, partial curve] | –
40 | CCCCn1c(SCC(=O)NCc2ccccc2)nc2ccc(N3CCOCC3)cc2c1=O | inconclusive: 2.06 µM [cytotoxic, full curve, poor fit] | –
41 | CCOC(=O)c1c(CN(C)C)n(C)c2ccc(OC(C)=O)cc12 | – | inactive: 17.1%
42 | CC(C)Cn1c(CNC(=O)c2ccccc2)nc2ccccc21 | inconclusive: 23.1 µM [cytotoxic, single point] | –
43 | Cc1cccc(NC(=O)CSc2nccn2Cc2ccco2)c1C | – | inconclusive: 11.2%
44 | Cc1[nH][nH]c(=O)c1/C=N/N1CCOCC1 | – | inactive: 2.05%
45 | CCOC(=O)N1CCN(C(=O)C[C@@H]2C[C@@]3(C(=O)OC)CCCCC=C3N(Cc3ccc(Cl)cc3Cl)C2=O)CC1 | inconclusive: 29.1 µM [cytotoxic, single point] | –

By substructure, those above with bromine (2)
Row | Compound | Potency | activity change, negative = cytotoxicity
13 | O=C(COC(=O)c1c2c(nc3ccccc13)CCCC2)c1ccc(Br)s1 | inconclusive: 16.4 µM [cytotoxic, single point] | –
36 | Cn1nc(C(C)(C)C)c([N+](=O)[O-])c1C(=O)Nc1ccc(Br)cc1 | inconclusive: 29.1 µM [cytotoxic, single point] | –
